## Screening data, single-dose tests

Chains of the proteins cited; added tags and fusions are not shown.
UniProt P9WPC5, whole entry: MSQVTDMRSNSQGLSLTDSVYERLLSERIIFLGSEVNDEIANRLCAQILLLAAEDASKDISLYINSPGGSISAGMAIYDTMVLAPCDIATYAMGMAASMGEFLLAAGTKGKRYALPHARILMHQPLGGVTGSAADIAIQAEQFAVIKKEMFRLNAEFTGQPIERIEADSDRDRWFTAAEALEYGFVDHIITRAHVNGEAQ
UniProt P9WPC3, whole entry partner: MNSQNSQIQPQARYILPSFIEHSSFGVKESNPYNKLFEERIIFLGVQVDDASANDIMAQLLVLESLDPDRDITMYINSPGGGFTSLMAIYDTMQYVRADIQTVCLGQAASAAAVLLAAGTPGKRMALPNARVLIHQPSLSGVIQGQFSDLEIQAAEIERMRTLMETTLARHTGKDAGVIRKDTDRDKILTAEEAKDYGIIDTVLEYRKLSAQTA
UniProt P9WFT3, whole entry: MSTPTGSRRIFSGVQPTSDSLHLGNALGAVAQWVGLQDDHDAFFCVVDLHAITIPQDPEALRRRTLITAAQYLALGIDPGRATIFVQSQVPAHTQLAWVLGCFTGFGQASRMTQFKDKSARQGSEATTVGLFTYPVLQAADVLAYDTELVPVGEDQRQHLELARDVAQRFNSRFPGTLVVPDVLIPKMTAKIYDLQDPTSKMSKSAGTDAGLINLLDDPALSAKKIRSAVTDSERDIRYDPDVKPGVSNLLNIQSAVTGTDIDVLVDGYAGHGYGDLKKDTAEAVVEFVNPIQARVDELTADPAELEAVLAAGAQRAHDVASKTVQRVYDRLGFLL
UniProt P9WNZ1, whole entry: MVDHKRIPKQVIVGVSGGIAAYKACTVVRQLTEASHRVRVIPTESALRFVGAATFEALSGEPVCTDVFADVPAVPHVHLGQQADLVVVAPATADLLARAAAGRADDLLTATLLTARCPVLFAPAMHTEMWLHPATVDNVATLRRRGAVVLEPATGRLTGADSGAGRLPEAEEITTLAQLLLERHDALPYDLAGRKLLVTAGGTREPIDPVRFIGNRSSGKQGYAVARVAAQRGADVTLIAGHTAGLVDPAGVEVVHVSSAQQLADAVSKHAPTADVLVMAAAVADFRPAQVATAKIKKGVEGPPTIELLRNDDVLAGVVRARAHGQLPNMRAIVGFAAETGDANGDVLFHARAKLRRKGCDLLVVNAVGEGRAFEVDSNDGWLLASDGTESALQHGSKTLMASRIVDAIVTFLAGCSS

Source: ChEMBL document CHEMBL3988442, “University of Dundee, Small-Polar-MMV Screening Library” (2021).

A: 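ClpP1P2, Mycobacterium tuberculosis (UniProt P9WPC5 and UniProt P9WPC3). Protease assay of ClpP1P2, read by the AMC dye that it sets free. Compounds at 50 µM. Direction is inferred from only a few compounds that gave an IC50; most scored high, so higher reads as stronger inhibition. Most other retested compounds had strongly negative values. About 69,000 compounds were tested under these conditions; 0.015% (about 10) showed 50% or more at least once.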
B: 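Assay of Toxoplasma gondii numbers, read through their beta-galactosidase reporter with a colour substrate. Concentration: 10 µM. Higher reads as fewer parasites (inferred from which compounds were picked for retests). About 67,000 compounds were tested under these conditions; 0.38% (about 260) showed 50% or more at least once.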
C: 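Tryptophan-tRNA ligase, Mycobacterium tuberculosis (UniProt P9WFT3). Enzyme assay of tryptophanyl-tRNA synthetase; the read-out is not stated. Tested at 10 µM. Direction is not recorded; retested compounds ran higher, which suggests that high means inhibition. About 65,000 compounds were tested under these conditions; 0.098% (about 64) showed 50% or more at least once.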
D: 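Enzyme assay of CoaBC with a phosphate dye (Biomol Green) read at 650 nm. Target: Coenzyme A biosynthesis protein CoaBC, Mycobacterium tuberculosis (UniProt P9WNZ1). Concentration: 30 µM. Higher reads as stronger inhibition, judged from the few compounds that gave an IC50. Most strong results did not repeat in a second test. Size under these conditions: about 67,000 compounds, about 40 of them at 50% or above in at least one test.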

Results are given as percent effect. The controls that fix the scale are not given in the record; negative values are as filed. Compounds were drawn at random from those tested, without regard to their results. A dash means the value is not listed here; it may have been measured.

{"smiles": "CCn1nc(C)c2nc(C(C)C)nc(NCCc3ccc(O)cc3)c21", "A": -3.582, "B": 48.01, "C": 3.238, "D": 3.233}
{"smiles": "Cc1ccoc1C(=O)N1Cc2c(Cn3ccnc3)nn(C)c2C1", "A": 22.77, "C": 4.928, "D": 3.337}
{"smiles": "Cc1cc(C)n(-c2ccnc(N3CCC(C(=O)N4CCCC4)CC3)n2)n1", "A": 11, "B": 11.71, "C": -1.292, "D": 9.937}
{"smiles": "COc1ccccc1CCN[C@@H]1c2ccccc2C2(CCNCC2)[C@H]1O", "A": -5.689, "B": 2.276, "C": 2.963, "D": 1.961}
{"smiles": "COCCN(Cc1ccc(F)cc1Cl)C(=O)c1ccccn1", "A": -14.61, "B": -2.023, "C": 7.319, "D": 5.128}
{"smiles": "CCOC(=O)c1ccc(N2CCN(Cc3c(C)nn(C)c3Cl)CC2)nc1", "A": -0.2241, "B": 1.07, "C": -2.468, "D": 0.6452}
{"smiles": "CSCC(=O)Nc1nccn1Cc1ccc(Br)cc1", "A": 5.617, "B": -10.94, "C": -3.309, "D": -1.2}
{"smiles": "CCn1ncc(C(=O)NCCc2nc(-c3ccncc3)n[nH]2)c1C", "A": -10.19, "B": -15.99, "C": -9.407, "D": -5.276}
{"smiles": "CCN1CCOC(CNCc2ccccn2)C1", "stereo": "centres unmarked", "A": -1.052, "B": -8.977, "C": 2.827, "D": 4.508}
{"smiles": "Cc1nccn1-c1ccc(N2CCC(N[C@H](C)C(C)C)CC2)cc1", "A": -9.898, "B": 3.254, "C": -2.991, "D": 2.314}
{"smiles": "O=C(c1ccsc1)N1CCC2(CC1)COCCN(Cc1ccncc1)C2", "A": 7.556, "C": -2.805, "D": 0.3708}
{"smiles": "O=C(N[C@H]1CN(Cc2cccs2)[C@@H]2CCCO[C@H]12)c1cccnc1", "A": 3.794, "C": 1.302, "D": 8.469}
{"smiles": "Cc1ccc(-n2cc(C(=O)N3CCn4c(C)nnc4C3)nn2)cc1", "A": 8.626, "B": -34.27, "C": 0.7656, "D": 13.41}
{"smiles": "Cc1cnn(CCNc2nc(C)cc(N(C)C)n2)c1", "A": -2.384, "B": 5, "C": 5.888, "D": -9.728}
{"smiles": "CC(C)c1nn(C)c(N(C)C)c1CNCc1ccnc(N(C)C)c1", "A": 1.252, "B": 8.835, "C": -3.17, "D": -0.6369}
{"smiles": "O=C(c1ccc(NC2CC2)nc1)N1CCC(Nc2cccnn2)CC1", "A": -34.44, "B": -4.79, "C": 1.63, "D": 2.35}
{"smiles": "COCCC(=O)N1CCN(CC(C)C)c2nc(C)ccc2C1.O=C(O)C(F)(F)F", "B": -0.4782}
{"smiles": "O=C(NCCO)NCC(c1ccccc1)N1CCc2sccc2C1", "stereo": "centres unmarked", "A": 0.994, "B": -9.866, "C": -1.982, "D": 0}
{"smiles": "Cc1ccc(CN2Cc3c(C(=O)N4CCCC4)nn(C)c3C2)s1.O=C(O)C(F)(F)F", "B": 18.79}
{"smiles": "N#CC1(NC(=O)c2ccn(-c3ccccc3Cl)n2)CCSC1", "stereo": "centres unmarked", "A": -4.22, "B": 0.05875, "C": -4.658, "D": -15.07}

The first 2 entries again:

SMILES,A,B,C,D
CCn1nc(C)c2nc(C(C)C)nc(NCCc3ccc(O)cc3)c21,-3.582%,48.01%,3.238%,3.233%
Cc1ccoc1C(=O)N1Cc2c(Cn3ccnc3)nn(C)c2C1,22.77%,-,4.928%,3.337%